# Results as given in PMC10177089.
# The chains behind the UniProt entries cited, without tags or fusion partners. Where a name states a change or a piece, a line headed by the entry shows the natural chain unless it says otherwise. A line that says so, or that is headed by a name, gives the form on record, which may keep a tag or linker.
# UniProt O14744: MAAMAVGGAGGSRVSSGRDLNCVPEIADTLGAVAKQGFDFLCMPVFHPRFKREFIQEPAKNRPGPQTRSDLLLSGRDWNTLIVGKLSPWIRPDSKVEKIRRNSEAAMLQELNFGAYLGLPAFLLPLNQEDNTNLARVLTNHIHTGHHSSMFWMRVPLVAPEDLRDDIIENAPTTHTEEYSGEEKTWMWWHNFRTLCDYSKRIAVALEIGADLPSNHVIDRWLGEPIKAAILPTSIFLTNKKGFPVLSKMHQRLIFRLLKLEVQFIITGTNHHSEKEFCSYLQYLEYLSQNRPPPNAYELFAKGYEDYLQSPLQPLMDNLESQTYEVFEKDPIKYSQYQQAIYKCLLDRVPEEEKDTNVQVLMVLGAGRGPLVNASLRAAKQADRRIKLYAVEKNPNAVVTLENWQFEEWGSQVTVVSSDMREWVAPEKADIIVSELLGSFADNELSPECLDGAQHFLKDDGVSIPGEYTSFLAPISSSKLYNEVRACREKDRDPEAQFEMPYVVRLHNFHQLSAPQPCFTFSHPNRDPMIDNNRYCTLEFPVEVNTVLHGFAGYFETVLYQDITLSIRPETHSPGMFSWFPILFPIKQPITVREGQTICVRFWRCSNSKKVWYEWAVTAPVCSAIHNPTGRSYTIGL
# PRMT5-6KR (HEK293T) (O14744, form named): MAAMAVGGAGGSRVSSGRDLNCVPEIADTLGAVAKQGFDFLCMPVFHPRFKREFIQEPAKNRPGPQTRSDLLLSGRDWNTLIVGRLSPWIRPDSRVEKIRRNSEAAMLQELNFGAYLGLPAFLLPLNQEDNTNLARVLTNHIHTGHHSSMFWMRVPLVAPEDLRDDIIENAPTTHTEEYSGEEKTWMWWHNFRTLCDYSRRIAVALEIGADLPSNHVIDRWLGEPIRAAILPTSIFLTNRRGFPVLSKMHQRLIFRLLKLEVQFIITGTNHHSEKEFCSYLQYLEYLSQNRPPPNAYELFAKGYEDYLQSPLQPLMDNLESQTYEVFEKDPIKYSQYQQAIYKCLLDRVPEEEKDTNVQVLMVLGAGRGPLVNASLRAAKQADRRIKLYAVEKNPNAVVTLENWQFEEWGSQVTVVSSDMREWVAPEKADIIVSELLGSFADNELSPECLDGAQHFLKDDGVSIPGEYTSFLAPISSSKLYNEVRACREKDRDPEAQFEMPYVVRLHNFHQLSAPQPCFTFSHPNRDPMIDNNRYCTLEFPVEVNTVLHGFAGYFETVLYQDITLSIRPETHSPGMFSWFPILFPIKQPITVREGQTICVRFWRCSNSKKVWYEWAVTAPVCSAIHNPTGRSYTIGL
# No constants are given. Whether binding was seen depends on the method and setting. Binding seen in cells or lysates may run through a third protein. Some entries that bind do so weakly or less than the wild type.
# Molecular target: PRMT5-6KR (HEK293T) (UniProt O14744)
# Test: co-IP; Myc IP from HEK293T cells transfected with indicated plasmids; PRMT5 dimer formation; immunoblot
substance,measurement,value
PRMT5-6KR (HEK293T) (from UniProt O14744 1-637) (enzyme),binding,binds
